In patent US20090169553A1 one finds binding data, which are given here for one molecule.

These are yes or no findings as the source states them, for the method shown. A result given as binding can be weak or reduced; the word gives no strength.

This experiment concerns the target tPA (Homo sapiens (Human)). Put plainly: SDS-PAGE, SDS-stable complex with a molar excess of tPA.

B1: TEV cleaved purified native sequence recombinant mouse neuroserpin (protein, UniProt O35684 17-410, looked up)
chain: TGATFPDETITEWSVNMYNHLRGTGEDENILFSPLSIALAMGMMELGAQGSTRKEIRHSMGYEGLKGGEEFSFLRDFSNMASAEENQYVMKLANSLFVQNGFHVNEEFLQMLKMYFNAEVNHVDFSQNVAVANSINKWVENYTNSLLKDLVSPEDFDGVTNLALINAVYFKGNWKSQFRPENTRTFSFTKDDESEVQIPMMYQQGEFYYGEFSDGSNEAGGIYQVLEIPYEGDEISMMLALSRQEVPLATLEPLLKAQLIEEWANSVKKQKVEVYLPRFTVEQEIDLKDILKALGVTEIFIKDANLTAMSDKKELFLSKAVHKSCIEVNEEGSEAAAASGMIAISRMAVLYPQVIVDHPFLYLIRNRKSGIILFMGRVMNPETMNTSGHDFEEL
Take B1: the binding entry is given as “binds”.
